This assay has as its target Y-box binding protein 1 (YB-1) (human (endogenous in A549 and MDA-MB-231)) (UniProt P67809). Kind of assay: affinity purification with mass spectrometry; endogenous YB-1 immunoprecipitated with anti-YB-1 (N-terminal) antibody on protein G beads from A549 and MDA-MB-231 lysates in low-detergent RIPA, without cross-linking, and from MDA-MB-231 after in vivo DSP cross-linking; eluted with the immunising peptide; SDS-PAGE, in-gel trypsin digestion, LC-MS/MS.

Protein sequences, listed by entry. Tags and fused reporters are not part of them.
UniProt P67809: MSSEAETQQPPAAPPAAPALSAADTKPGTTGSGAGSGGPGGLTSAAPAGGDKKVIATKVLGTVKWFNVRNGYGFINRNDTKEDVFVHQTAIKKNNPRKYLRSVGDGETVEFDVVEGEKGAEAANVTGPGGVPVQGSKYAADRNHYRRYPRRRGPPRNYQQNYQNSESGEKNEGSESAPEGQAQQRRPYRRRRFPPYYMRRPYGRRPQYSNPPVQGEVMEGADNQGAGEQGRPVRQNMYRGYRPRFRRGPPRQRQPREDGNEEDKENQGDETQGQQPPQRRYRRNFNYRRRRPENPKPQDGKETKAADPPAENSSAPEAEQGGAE
UniProt P68371: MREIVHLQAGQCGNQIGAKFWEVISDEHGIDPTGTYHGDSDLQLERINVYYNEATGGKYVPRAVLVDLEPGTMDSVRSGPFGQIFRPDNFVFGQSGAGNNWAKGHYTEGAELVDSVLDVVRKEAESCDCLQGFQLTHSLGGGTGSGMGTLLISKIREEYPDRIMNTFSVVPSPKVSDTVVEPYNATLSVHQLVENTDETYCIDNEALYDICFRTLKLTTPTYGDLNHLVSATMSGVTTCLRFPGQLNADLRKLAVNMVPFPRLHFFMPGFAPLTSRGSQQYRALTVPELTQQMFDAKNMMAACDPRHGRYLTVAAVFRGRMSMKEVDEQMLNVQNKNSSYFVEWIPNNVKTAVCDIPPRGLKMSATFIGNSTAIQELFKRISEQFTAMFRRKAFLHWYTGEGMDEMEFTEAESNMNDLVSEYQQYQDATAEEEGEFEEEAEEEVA
UniProt P26038: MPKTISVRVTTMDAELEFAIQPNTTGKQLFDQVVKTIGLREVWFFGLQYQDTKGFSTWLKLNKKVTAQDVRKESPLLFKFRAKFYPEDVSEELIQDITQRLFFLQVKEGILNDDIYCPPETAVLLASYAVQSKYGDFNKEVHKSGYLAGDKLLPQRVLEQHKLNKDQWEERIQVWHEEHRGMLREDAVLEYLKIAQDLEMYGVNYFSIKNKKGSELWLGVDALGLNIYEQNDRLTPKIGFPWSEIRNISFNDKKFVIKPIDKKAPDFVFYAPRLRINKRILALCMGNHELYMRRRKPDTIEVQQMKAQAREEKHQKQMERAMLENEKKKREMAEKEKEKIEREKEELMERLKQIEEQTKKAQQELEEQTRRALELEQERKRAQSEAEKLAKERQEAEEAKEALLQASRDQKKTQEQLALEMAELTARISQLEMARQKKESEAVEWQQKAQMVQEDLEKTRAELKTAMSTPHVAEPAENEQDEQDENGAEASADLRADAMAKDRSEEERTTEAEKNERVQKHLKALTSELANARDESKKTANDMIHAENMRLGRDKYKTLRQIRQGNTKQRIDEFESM
UniProt P68363: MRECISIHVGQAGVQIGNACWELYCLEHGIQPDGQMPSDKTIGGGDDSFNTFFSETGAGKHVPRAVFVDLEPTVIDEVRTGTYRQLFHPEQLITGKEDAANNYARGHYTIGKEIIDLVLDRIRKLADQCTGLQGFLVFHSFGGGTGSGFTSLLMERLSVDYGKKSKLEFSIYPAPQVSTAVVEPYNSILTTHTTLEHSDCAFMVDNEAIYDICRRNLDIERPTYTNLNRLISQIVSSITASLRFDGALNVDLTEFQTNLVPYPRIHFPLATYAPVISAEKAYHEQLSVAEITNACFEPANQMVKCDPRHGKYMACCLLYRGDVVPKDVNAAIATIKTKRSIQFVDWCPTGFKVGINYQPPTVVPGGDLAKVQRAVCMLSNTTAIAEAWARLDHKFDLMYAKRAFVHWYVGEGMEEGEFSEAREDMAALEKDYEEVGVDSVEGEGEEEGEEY
UniProt P07437: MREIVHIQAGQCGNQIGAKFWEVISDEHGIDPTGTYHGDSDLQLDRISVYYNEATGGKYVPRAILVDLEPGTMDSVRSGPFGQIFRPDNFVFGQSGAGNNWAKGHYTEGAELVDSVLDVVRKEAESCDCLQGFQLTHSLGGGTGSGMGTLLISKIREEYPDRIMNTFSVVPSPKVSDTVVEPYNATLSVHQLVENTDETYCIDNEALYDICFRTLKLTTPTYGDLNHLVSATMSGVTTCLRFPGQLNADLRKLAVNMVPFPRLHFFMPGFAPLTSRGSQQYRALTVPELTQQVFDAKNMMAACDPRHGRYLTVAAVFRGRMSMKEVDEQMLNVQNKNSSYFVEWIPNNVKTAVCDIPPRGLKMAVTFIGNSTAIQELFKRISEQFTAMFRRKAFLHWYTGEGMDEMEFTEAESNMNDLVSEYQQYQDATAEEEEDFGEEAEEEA

No constants are given. Whether binding was seen depends on the method and setting. In cells and extracts the contact can be indirect. Here binding means that the protein was enriched with, or labelled near, the bait; the list need not be complete.

In the case of “tubulin TUBB4B (from UniProt P68371 1-445)”, the binding entry is listed as “binds”.

For “moesin (MSN) (from UniProt P26038 1-577)”, the binding entry is reported as “binds”.

In the case of “tubulin TUBA1B (from UniProt P68363 1-451)”, the binding result was “binds”.

For the substance “tubulin TUBB (from UniProt P07437 1-444)”, the binding entry is “binds”.

These data come from PMC7565962.
